PubChem BioAssay AID1259425, University of Nebraska Medical Center | 2018
Shown is an unselected part of about 14,000 deposited reagents. Not all columns of the deposit are shown. Not stated in the record: the time to read-out.

- Aim: 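Find knockdowns that reproduce the gene expression pattern seen when KSR1 is lost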 (primary screen)
- Cells: HCT116 human colon cancer cells
- Knock-down reagent: siRNA pool against human genes, 50 nM siRNA
- Detection: 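After 50 nM siRNA pool, branched-DNA assay measures six marker transcripts per well, minus blank, normalised to the geometric mean of two housekeeping transcripts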
- Reading the numbers: BNIP3L mRNA: higher = more BNIP3L transcript after knockdown

{"target gene": "HSPBP1 (GeneID 23640)", "BNIP3L mRNA, set 1": 0.0754}
{"target gene": "HAPLN1 (GeneID 1404)", "BNIP3L mRNA, set 1": -0.0319}
{"target gene": "DHRS7 (GeneID 51635)", "BNIP3L mRNA, set 1": 0.0755}
{"target gene": "FBXO46 (GeneID 23403)", "BNIP3L mRNA, set 1": 0.105}
{"target gene": "CAMKMT (GeneID 79823)", "BNIP3L mRNA, set 1": 0.161}
{"target gene": "RBM15 (GeneID 64783)", "BNIP3L mRNA, set 1": 0.0816}
{"target gene": "DPP3 (GeneID 10072)", "BNIP3L mRNA, set 1": 0.102}
{"target gene": "GJA9 (GeneID 81025)", "BNIP3L mRNA, set 1": 0.177}
{"target gene": "B9D1 (GeneID 27077)", "BNIP3L mRNA, set 1": 0.0745}
{"target gene": "TESK2 (GeneID 10420)", "BNIP3L mRNA, set 1": 0.162}
{"target gene": "ALPG (GeneID 251)", "BNIP3L mRNA, set 1": 0.146}
{"target gene": "RMND1 (GeneID 55005)", "BNIP3L mRNA, set 1": 0.0745}
{"target gene": "ATG4D (GeneID 84971)", "BNIP3L mRNA, set 1": 0.153}
{"target gene": "ZNF614 (GeneID 80110)", "BNIP3L mRNA, set 1": 0.0473}
{"target gene": "ZBTB11 (GeneID 27107)", "BNIP3L mRNA, set 1": 0.0762}
{"target gene": "TXNDC11 (GeneID 51061)", "BNIP3L mRNA, set 1": 0.0959}
{"target gene": "CHRDL2 (GeneID 25884)", "BNIP3L mRNA, set 1": 0.143}
{"target gene": "FXYD5 (GeneID 53827)", "BNIP3L mRNA, set 1": 0.0507}
{"target gene": "HOXB4 (GeneID 3214)", "BNIP3L mRNA, set 1": 0.0801}

Copied from the list.
HAPLN1 (GeneID 1404), BNIP3L mRNA, set 1: -0.0319
Result for DPP3 (GeneID 10072) under “BNIP3L mRNA, set 1”: 0.102
ATG4D (GeneID 84971), BNIP3L mRNA, set 1 → 0.153
